# Assay results reported in PubChem BioAssay AID2551 (National Center for Advancing Translational Sciences (NCATS), 2010).
# Chains of the proteins cited; added tags and fusions are not shown. Lines headed by an entry give the natural chain unless they say otherwise; changes in a name come on top.
# UniProt P51450: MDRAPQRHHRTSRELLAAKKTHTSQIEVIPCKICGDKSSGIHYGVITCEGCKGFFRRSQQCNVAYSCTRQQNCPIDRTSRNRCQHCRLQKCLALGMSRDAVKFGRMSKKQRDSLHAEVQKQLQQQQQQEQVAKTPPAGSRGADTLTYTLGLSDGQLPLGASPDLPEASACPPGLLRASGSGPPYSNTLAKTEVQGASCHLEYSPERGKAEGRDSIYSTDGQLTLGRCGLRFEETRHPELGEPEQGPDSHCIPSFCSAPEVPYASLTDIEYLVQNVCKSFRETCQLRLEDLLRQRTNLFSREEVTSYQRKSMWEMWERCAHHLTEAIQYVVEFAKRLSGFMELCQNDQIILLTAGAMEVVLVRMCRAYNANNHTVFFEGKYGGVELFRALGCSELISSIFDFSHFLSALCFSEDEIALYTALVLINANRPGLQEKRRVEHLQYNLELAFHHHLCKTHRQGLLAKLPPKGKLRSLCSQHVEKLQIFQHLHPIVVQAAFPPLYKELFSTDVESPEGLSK
# In all, about 310,000 compounds went through this assay and about 17,000 (5.5%) were called active. Inconclusive results, whose numbers are uncertain, are shown with a selection of clear calls. The call rests on the fitted dose curve; in most records, active means well fitted inhibition curve with a large enough effect; inconclusive means small, poorly fitted or top-dose-only effect, or effect the other way; inactive means no such curve, though single readings can be large or run the other way. Potencies beside an inconclusive call are fits to weak or partial responses and may not hold up.
# Molecular target: Nuclear receptor ROR-gamma (Mus musculus) (UniProt P51450)
# Assay: qHTS for inhibitors of ROR gamma transcriptional activity; further: nearly all actives have a fitted effect of over 60% in size
# Conditions: Drosophila S2 Gal4-RORgamma UAS-luciferase reporter, 20 h; series mostly up to 53.6 µM
# In short: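 A Gal4/UAS one-hybrid system in insect cells: metallothionein-promoter Gal4–ROR gamma fusion plus Photinus luciferase reporter. Copper sulfate 700 uM final, 20 hr ambient incubation, luminescent detection after 10 min with reagent.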
# Potency means the concentration at half of the fitted maximal effect.
row,SMILES,Potency
1,O=[N+]([O-])c1ccc(N/N=C/c2cn(Cc3ccc(F)cc3)c3ccccc23)nc1,"inconclusive: 6.31 µM [inhibitor, partial curve]"
2,CN(c1ccccc1)S(=O)(=O)c1cccc(NC(=O)CSc2n[nH]c(N)n2)c1,"inconclusive: 31.6 µM [inhibitor, single point]"
3,CCn1c(SCC(N)=O)nc2sc3c(c2c1=O)CCCC3,active: 11.2 µM
4,CCOc1nc(NCCO)nc(NCCC2=CCCCC2)n1,"inconclusive: 35.5 µM [activator, single point]"
5,Cc1ccc(Cn2cccc(NC(=O)NC3CCCCC3)c2=O)cc1,"inconclusive: 17.8 µM [activator, single point]"
6,NS(=O)(=O)c1ccc(NC(=O)CCC(=O)O)cc1,inactive
7,O=C(c1cc(Cl)ccc1Cl)N1CCc2ccccc21,"inconclusive: 0.316 µM [inhibitor, full curve, poor fit]"
8,COC(=O)c1c(-c2ccc(C)cc2)csc1NC(=S)NC(=O)c1ccc(F)cc1,active: 2.51 µM
9,COc1cccc(-c2nc(CS(=O)CC(=O)NCc3ccc(F)cc3)c(C)o2)c1 (stereo not drawn),"inconclusive: 10 µM [inhibitor, partial curve, poor fit]"
10,Cc1ccc(/C=N/N2CCN(c3ccncc3S(=O)(=O)N3CCCCC3)CC2)cc1,inactive
11,C/C(=N\NC(=O)Cc1cccc2ccccc12)c1ccncc1,"inconclusive: 20 µM [inhibitor, single point]"
12,O=C(O)C(Cc1c[nH]c2ccccc12)NS(=O)(=O)c1ccc(Cl)c(C(F)(F)F)c1 (stereo not drawn),"inconclusive: 5.62 µM [activator, single point]"
13,N#C/C(=C\c1ccc(F)cc1)c1nc(-c2ccco2)cs1,"inconclusive: 2.82 µM [activator, single point]"
14,N#C/C(=C/c1ccc(N2CCCCCC2)o1)c1ccc(Cl)cc1,active: 7.08 µM
15,Cc1cc(Cl)ccc1NC(=S)NCc1ccccc1,active: 3.98 µM
16,CC1=[N+](C)c2ccc3ccccc3c2C1(C)C,"inconclusive: 35.5 µM [inhibitor, single point]"
17,O=C(O)Cn1ncc2c1-c1ccoc1CC2,"inconclusive: 35.5 µM [inhibitor, single point]"
18,O=[N+]([O-])c1ccc(C=Nc2ccc(Cl)c([N+](=O)[O-])c2)s1,"inconclusive: 35.5 µM [inhibitor, single point]"
19,CCCNc1c(NS(=O)(=O)c2ccc(C3CCCCC3)cc2)c(=O)oc2ccccc12,inactive
20,Cc1cc2[nH]c(=S)[nH]c2cc1C,"inconclusive: 12.6 µM [inhibitor, single point]"
21,COc1cc(/C=C/c2cc[n+](C)cc2)ccc1OCC(=O)Nc1ccc(Cl)c(Cl)c1,inactive
22,O=C(NC(=O)c1ccccc1F)Nc1nc(-c2cccs2)cc(C(F)(F)F)n1,"inconclusive: 35.5 µM [activator, single point]"
23,O=C(NN=C1CCCCCC1)c1ccc(Br)o1,"inconclusive: 22.4 µM [inhibitor, single point]"
24,CC1CC(C)(C)Nc2ccc(OC(=O)c3ccco3)cc21 (stereo not drawn),active: 5.01 µM

row,SMILES,Potency
1,Cc1ccc(NC(=O)c2cccc(OC(F)F)c2)c(OC(F)F)c1,"inconclusive: 10 µM [activator, partial curve]"
2,Cc1ccc(CNC(=O)CN(C)S(=O)(=O)c2cccs2)cc1,inactive
3,CC1CCN(c2ccc3nnc(CCC(=O)NCCCOC(C)C)n3n2)CC1,inactive
4,COc1ccc(N2CCN(C(=O)c3ccc(NS(=O)(=O)c4ccc(F)cc4)cc3)CC2)cc1,"inconclusive: 11.2 µM [activator, partial curve]"
5,O=[N+]([O-])c1ccc(N=Nc2ncc[nH]2)cc1,active: 7.08 µM
6,CCN(CC)S(=O)(=O)c1cc([N+](=O)[O-])ccc1N=Nc1c(O)[nH]c2ccccc12,"inconclusive: 14.1 µM [inhibitor, single point]"
7,CCc1ccc(/C=C2/SC(=S)N(CCC(=O)Nc3ccc(C(=O)O)cc3)C2=O)cc1,active: 3.55 µM
8,CCNC(=S)NNc1nc(N2CCOCC2)nc(N2CCOCC2)n1,inactive
9,O=C(NC1CCN(C(=O)Nc2ccccc2)CC1)C1CCCCC1,"inconclusive: 5.62 µM [inhibitor, single point]"
10,Cc1ccc(-c2cc(N)n(-c3ccccc3)n2)cc1,inactive
11,COc1ccc(NCC(=O)N/N=C/C2CCCCC2)cc1,inactive
12,C[C@H](NC(=O)c1nc[nH]c1C(=O)N1CCc2ccccc2C1)C(=O)OC(C)(C)C,"inconclusive: 5.62 µM [inhibitor, partial curve, poor fit]"
13,O=C(c1ccc(Cl)c(Cl)c1)N1CCC(O)(CN2CCOCC2)CC1,inactive
14,Cn1c(/C=N/NC(=O)c2ccccc2)nc2ccccc21,active: 12.6 µM
15,Cc1ccc(-c2nc(NC(=O)CSc3nnc4scc(-c5ccccc5)n34)ns2)cc1,"inconclusive: 20 µM [inhibitor, single point]"
16,CSc1nnc(NC(=O)c2nc(S(=O)(=O)Cc3cccc(C)c3)ncc2Cl)s1,"inconclusive: 15.8 µM [inhibitor, single point]"
17,S=C(NCc1ccccn1)Nc1ccc(Cl)cc1,active: 7.94 µM
18,CCOC(=O)CC(=O)CSc1nc2ccc(C)cc2cc1C#N,"inconclusive: 1.58 µM [activator, partial curve, poor fit]"
19,CCOC(=O)c1cnc2ccc(OCC)cc2c1NCc1ccccc1OC,active: 12.6 µM
20,CCN(c1ccccc1)S(=O)(=O)c1ccc(NC(=O)c2nc(S(C)(=O)=O)ncc2Cl)cc1,active: 6.31 µM
21,COc1cc(NC(=O)c2ccno2)cc(C(=O)Nc2cccc(C(F)(F)F)c2)c1,inactive
22,Cc1ccc(-c2nc(S(=O)(=O)c3ccc(C)cc3)c(N(C)C)o2)cc1,inactive
23,Cc1ccc(S(=O)(=O)N(C)c2ccc(OCC(=O)Nc3nc4c(ccc5ccccc54)s3)cc2)cc1,"inconclusive: 35.5 µM [activator, single point]"
24,O=C(CCCOc1ccccc1)N1CCN(S(=O)(=O)c2cccs2)CC1,"inconclusive: 10 µM [activator, single point]"

# 11 successive records already listed, for reference:
row,SMILES,Potency
6,CCN(CC)S(=O)(=O)c1cc([N+](=O)[O-])ccc1N=Nc1c(O)[nH]c2ccccc12,"inconclusive: 14.1 µM [inhibitor, single point]"
7,CCc1ccc(/C=C2/SC(=S)N(CCC(=O)Nc3ccc(C(=O)O)cc3)C2=O)cc1,active: 3.55 µM
8,CCNC(=S)NNc1nc(N2CCOCC2)nc(N2CCOCC2)n1,inactive
9,O=C(NC1CCN(C(=O)Nc2ccccc2)CC1)C1CCCCC1,"inconclusive: 5.62 µM [inhibitor, single point]"
10,Cc1ccc(-c2cc(N)n(-c3ccccc3)n2)cc1,inactive
11,COc1ccc(NCC(=O)N/N=C/C2CCCCC2)cc1,inactive
12,C[C@H](NC(=O)c1nc[nH]c1C(=O)N1CCc2ccccc2C1)C(=O)OC(C)(C)C,"inconclusive: 5.62 µM [inhibitor, partial curve, poor fit]"
13,O=C(c1ccc(Cl)c(Cl)c1)N1CCC(O)(CN2CCOCC2)CC1,inactive
14,Cn1c(/C=N/NC(=O)c2ccccc2)nc2ccccc21,active: 12.6 µM
15,Cc1ccc(-c2nc(NC(=O)CSc3nnc4scc(-c5ccccc5)n34)ns2)cc1,"inconclusive: 20 µM [inhibitor, single point]"
16,CSc1nnc(NC(=O)c2nc(S(=O)(=O)Cc3cccc(C)c3)ncc2Cl)s1,"inconclusive: 15.8 µM [inhibitor, single point]"
